Publication PMC5772613
No constants are given. Whether binding was seen depends on the method and setting. For some of these results: Binding seen in cells or lysates may run through a third protein. Some results given as binding are weak or reduced against the parent protein; the word gives no strength. For some of these results: Tags and fused reporters may be left off the sequences shown.

The chains behind the UniProt entries cited, without tags or fusion partners. Residues count along the entry.
UniProt P15056: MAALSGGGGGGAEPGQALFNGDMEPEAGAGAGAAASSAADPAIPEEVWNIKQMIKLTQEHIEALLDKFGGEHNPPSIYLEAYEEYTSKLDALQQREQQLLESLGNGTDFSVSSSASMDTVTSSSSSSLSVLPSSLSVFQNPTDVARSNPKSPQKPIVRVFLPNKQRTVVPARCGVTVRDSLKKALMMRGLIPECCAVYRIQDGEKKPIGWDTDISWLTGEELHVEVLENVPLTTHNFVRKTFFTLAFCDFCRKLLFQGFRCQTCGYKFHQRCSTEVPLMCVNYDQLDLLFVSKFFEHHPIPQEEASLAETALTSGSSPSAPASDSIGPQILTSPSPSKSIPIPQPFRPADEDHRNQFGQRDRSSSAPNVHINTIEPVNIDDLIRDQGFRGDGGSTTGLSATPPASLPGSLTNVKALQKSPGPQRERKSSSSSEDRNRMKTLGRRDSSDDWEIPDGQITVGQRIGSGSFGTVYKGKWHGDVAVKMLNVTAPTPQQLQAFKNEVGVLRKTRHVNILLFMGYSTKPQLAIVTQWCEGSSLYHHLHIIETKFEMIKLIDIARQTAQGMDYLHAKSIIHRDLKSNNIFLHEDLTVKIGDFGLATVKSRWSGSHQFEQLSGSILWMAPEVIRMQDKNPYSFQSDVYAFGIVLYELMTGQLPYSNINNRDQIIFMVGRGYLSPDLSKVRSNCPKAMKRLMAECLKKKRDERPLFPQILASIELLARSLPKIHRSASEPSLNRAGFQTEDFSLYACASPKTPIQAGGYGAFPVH
UniProt P08631, residues 144-241: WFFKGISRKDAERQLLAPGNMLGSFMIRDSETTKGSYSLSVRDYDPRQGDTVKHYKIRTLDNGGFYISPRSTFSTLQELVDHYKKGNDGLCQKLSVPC
UniProt P07948, residues 129-226: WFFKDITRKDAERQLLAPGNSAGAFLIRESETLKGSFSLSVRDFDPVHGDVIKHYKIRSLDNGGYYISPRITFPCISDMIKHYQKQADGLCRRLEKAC
SH3 domain of Yes (amino acids 91-152) (P07947, residues 91-152): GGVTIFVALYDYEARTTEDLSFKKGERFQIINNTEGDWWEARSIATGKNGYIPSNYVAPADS
SH2 domain of Yes (P07947, residues 158-255): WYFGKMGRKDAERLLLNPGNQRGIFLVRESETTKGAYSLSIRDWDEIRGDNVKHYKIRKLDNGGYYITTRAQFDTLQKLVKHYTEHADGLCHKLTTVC

What was measured:
[1] = target: FLAG-tagged bRaf, P15056; test: co-IP; HEK-293 cotransfected with HA-Cdc37 variants and FLAG-bRaf; anti-FLAG resin 1 h at 4 °C; blot with anti-HA; details: remark: other sources report otherwise
[2] = target: FLAG-tagged bRaf (UniProt P15056); test: as above
[3] = target: SH2 domain of Hck (UniProt P08631); test: ITC; phosphopeptide (600-750 μM, syringe) titrated into SH2 domain (50-60 μM, cell); 25 °C; 20 mM Tris, 100 mM NaCl, 0.5 mM EDTA, 1 mM TCEP; single binding site model; both purified
[4] = target: SH2 domain of Lyn (UniProt P07948); test: as above
[5] = target: SH2 domain of Src (UniProt P12931); test: as above
[6] = target: SH2 domain of Src (UniProt P12931); test: NMR titration; pYESL added to 15N-labelled SH2 domain, 15N-HSQC; Yes^SH2: 25 °C, 1.2 molar equivalents of phosphopeptide at 250 μM; 20 mM Tris pH 7.5, 100 mM NaCl, 0.5 mM EDTA, 2 mM DTT; both purified
[7] = target: SH2 domain of Yes (UniProt P07947); test: as above
[8] = target: SH3 domain of Yes (amino acids 91-152) (UniProt P07947); test: NMR titration; 6.0 molar equivalents of unlabelled full-length Cdc37 (1.2 mM) added to 15N-labelled Yes^SH3 (200 μM); 5 °C; 50 mM KPi pH 6.5, 150 mM NaCl, 2 mM DTT; both purified
[9] = target: SH2 domain of Yes (UniProt P07947); test: NMR titration; C-Cdc37 or C-Cdc37^Y298E added to 15N-labelled Yes^SH2, 15N-HSQC; both purified

B1: HA-tagged wild-type Cdc37, Q16543 1-378 (protein)
chain: MVDYSVWDHIEVSDDEDETHPNIDTASLFRWRHQARVERMEQFQKEKEELDRGCRECKRKVAECQRKLKELEVAEGGKAELERLQAEAQQLRKEERSWEQKLEEMRKKEKSMPWNVDTLSKDGFSKSMVNTKPEKTEEDSEEVREQKHKTFVEKYEKQIKHFGMLRRWDDSQKYLSDNVHLVCEETANYLVIWCIDLEVEEKCALMEQVAHQTIVMQFILELAKSLKVDPRACFRQFFTKIKTADRQYMEGFNDELEAFKERVRGRAKLRIEKAMKEYEEEERKKRLGPGGLDPVEVYESLPEELQKCFDVKDVQMLQDAISKMDPTDAKYHMQRCIDSGLWVPNSKASEAKEGEEAGPGDPLLEAVPKTGDEKDVSV
B1 was tested. Which binding [1] did it give?
Its binding is “binds”.

B2: HA-tagged Cdc37 Y298E (protein, UniProt Q16543 1-378)
chain: MVDYSVWDHIEVSDDEDETHPNIDTASLFRWRHQARVERMEQFQKEKEELDRGCRECKRKVAECQRKLKELEVAEGGKAELERLQAEAQQLRKEERSWEQKLEEMRKKEKSMPWNVDTLSKDGFSKSMVNTKPEKTEEDSEEVREQKHKTFVEKYEKQIKHFGMLRRWDDSQKYLSDNVHLVCEETANYLVIWCIDLEVEEKCALMEQVAHQTIVMQFILELAKSLKVDPRACFRQFFTKIKTADRQYMEGFNDELEAFKERVRGRAKLRIEKAMKEYEEEERKKRLGPGGLDPVEVEESLPEELQKCFDVKDVQMLQDAISKMDPTDAKYHMQRCIDSGLWVPNSKASEAKEGEEAGPGDPLLEAVPKTGDEKDVSV
How did the binding [2] turn out when B2 was run?
The binding was “binds”.

B3: HA-tagged Cdc37 Y298F (protein, UniProt Q16543 1-378)
chain: MVDYSVWDHIEVSDDEDETHPNIDTASLFRWRHQARVERMEQFQKEKEELDRGCRECKRKVAECQRKLKELEVAEGGKAELERLQAEAQQLRKEERSWEQKLEEMRKKEKSMPWNVDTLSKDGFSKSMVNTKPEKTEEDSEEVREQKHKTFVEKYEKQIKHFGMLRRWDDSQKYLSDNVHLVCEETANYLVIWCIDLEVEEKCALMEQVAHQTIVMQFILELAKSLKVDPRACFRQFFTKIKTADRQYMEGFNDELEAFKERVRGRAKLRIEKAMKEYEEEERKKRLGPGGLDPVEVFESLPEELQKCFDVKDVQMLQDAISKMDPTDAKYHMQRCIDSGLWVPNSKASEAKEGEEAGPGDPLLEAVPKTGDEKDVSV
Which binding [2] does the source give for B3 here?
The binding was “binds”.

Which results are given for EVYESLPEEL (phosphotyrosine at Y298 (third residue of the peptide)) [Phosphotyrosine-modified decapeptide EVpYESLPEEL of Cdc37 (residues 296-305)]?
binding [3]: binds; binding [4]: binds weakly; binding [5]: binds; binding [6]: binds; binding [7]: binds

B4: Full-length human Cdc37 (protein, UniProt Q16543 1-378)
chain: MVDYSVWDHIEVSDDEDETHPNIDTASLFRWRHQARVERMEQFQKEKEELDRGCRECKRKVAECQRKLKELEVAEGGKAELERLQAEAQQLRKEERSWEQKLEEMRKKEKSMPWNVDTLSKDGFSKSMVNTKPEKTEEDSEEVREQKHKTFVEKYEKQIKHFGMLRRWDDSQKYLSDNVHLVCEETANYLVIWCIDLEVEEKCALMEQVAHQTIVMQFILELAKSLKVDPRACFRQFFTKIKTADRQYMEGFNDELEAFKERVRGRAKLRIEKAMKEYEEEERKKRLGPGGLDPVEVYESLPEELQKCFDVKDVQMLQDAISKMDPTDAKYHMQRCIDSGLWVPNSKASEAKEGEEAGPGDPLLEAVPKTGDEKDVSV
How did the binding [8] turn out when B4 was run?
The binding was “binds weakly”.

B5: C-terminal domain of Cdc37 (a.a. 288-378) with the phosphomimetic mutation Y298E (domain or fragment, UniProt Q16543 288-378)
chain: GPGGLDPVEVEESLPEELQKCFDVKDVQMLQDAISKMDPTDAKYHMQRCIDSGLWVPNSKASEAKEGEEAGPGDPLLEAVPKTGDEKDVSV
B5 was tested. Which binding [9] did it give?
The binding was “no binding”.
